# According to PMC3050729, “Novel computational analysis of protein binding array data identifies direct targets of Nkx2.2 in the pancreas”:
# Molecular target: T1, Nkx2.2, endogenous in betaTC6 nuclear extract (UniProt P42586)
# T1 sequence (looked up, limits assumed): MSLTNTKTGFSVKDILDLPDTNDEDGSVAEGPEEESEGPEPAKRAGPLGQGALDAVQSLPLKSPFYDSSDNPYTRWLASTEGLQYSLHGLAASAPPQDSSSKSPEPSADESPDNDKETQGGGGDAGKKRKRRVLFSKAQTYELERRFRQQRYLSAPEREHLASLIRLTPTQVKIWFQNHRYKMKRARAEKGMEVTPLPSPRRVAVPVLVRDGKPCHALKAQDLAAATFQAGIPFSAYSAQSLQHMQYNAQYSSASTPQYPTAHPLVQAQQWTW
# Assay: EMSA
# Settings: Nkx2.2 antibody, possibly stabilized by interacting factors; pH and temperature not given; protein in an extract; label: 32P-dCTP Klenow fill-in
row,Sequence,binding result
1,TGCTTTCTGCAGACCTAGCACCAGGCAAGTGTTTGGAAACTGCAGCT / CTGAAGCTGCAGTTTCCAAACACTTGCCTGGTGCTAGGTCTGCAGAA [Ins2 -144],binds more weakly

# Same assay, conditions: shift inhibited by Nkx2.2 antibody; pH and temperature not given; protein in an extract; label: 32P-dCTP Klenow fill-in
row,Sequence,binding result
1,AAGCAGAACTCAGGCAGCAAGGTACTTAATGGTCCCTCCTTCTCCATC / AGAGATGGAGAAGGAGGGACCATTAAGTACCTTGCTGCCTGAGTTCT [Ins2 -477 (Ins -471 in probe list)],binds

# Molecular target: T2, Myc-Nkx2.2 in alphaTC1 nuclear extract (UniProt P42586)
# T2 sequence (looked up, limits assumed): T1 sequence (looked up, limits assumed)
# Assay: EMSA
# Settings: pH and temperature not given; protein in a lysate after overexpression; protein details: Myc; label: 32P-dCTP Klenow fill-in
row,Sequence,binding result
1,TCGACGCGATTTTTCAAGTGGTTTTCAGTAGC / AGCTGCTACTGAAAACCACTTGAAAAATCGCG [Nkx2.2 AAGT consensus],binds
2,TCGACGCGATTTTTCGAGTGGTTTTCAGTAGC / AGCTGCTACTGAAAACCACTCGAAAAATCGCG [Nkx2.2 GAGT],binds more weakly

# Molecular target: T3, Nkx2.2 (in vitro translated) (UniProt P42586)
# T3 sequence (looked up, limits assumed): T1 sequence (looked up, limits assumed)
# Assay: EMSA
# Settings: pH and temperature not given; protein translated in vitro; protein details: Myc (stated in Fig 1C); label: 32P-dCTP Klenow fill-in
row,Sequence,binding result
1,TGCTCATGTGGGCAGAATTAAGTGGAATTAGCTAACAAATTATATAAAAT / TGAATTTTATATAATTTGTTAGCTAATTCCACTTAATTCTGCCCACATGA [Pdx1 -5877],binds
2,CGGCTGTTAGGTCTTGCCTGCCCCACTTAAGCCCCTGAGACCTGAGGTCT / TGAAGACCTCAGGTCTCAGGGGCTTAAGTGGGGCAGGCAAGACCTAACAGC [Tm4sf4 +912],binds
3,AGCCACTTTATGGCGGGAACTGGAAATAAGTGCTGTGGTCCCGCTGACTTCT / TGCAGAAGTCAGCGGGACCACAGCACTTATTTCCAGTTCCCGCCATAAAGTG [Nkx6.2 -1441],binds
4,AGTTATGACCCGAGTGAGAACAAAGTACTCAGAATACGGGACACACCTGT / GCAACAGGTGTGTCCCGTATTCTGAGTACTTTGTTCTCACTCGGGTCATA [Spock3 -1044],binds
5,TGAGGTTAAAAGAGAGAGAGAATTTTGAAGTGTATCCTTTGGC / AGGCCAAAGGATACACTTCAAAATTCTCTCTCTCTTTTAACC [Chgb -217],binds
6,AGTCCAAATATCTTAAGGAGATAAACCACTTGAGAGGAGACTTAATTC / TTGAGAATTAAGTCTCCTCTCAAGTGGTTTATCTCCTTAAGATATTTGG [Frzb -2290],binds
7,GTCAATATTTTGGTTGAAGCTTAAGGATGAGTACTAGAAATGACAAG / TGACTTGTCATTTCTAGTACTCATCCTTAAGCTTCAACCAAAATATT [Nkx2.2 -716],binds
8,GCCATTAGTGCCAATGACCCAGCACTCGAGGGTAGGGGGAGCACAGC / ACTGGCTGTGCTCCCCCTACCCTCGAGTGCTGGGTCATTGGCACTAATG [Tm4sf4 -1723],binds
9,GAACAAACACAGGGTGACTCATTGAAGTGTGATGCATGGCTAAAAGCAGA / AGTTCTGCTTTTAGCCATGCATCACACTTCAATGAGTCACCCTGTGTTTG [Chgb -1529],binds
10,GCTGCAAGTTTGCTACATACCACTTGTTCGCCCCACTTAACATCAGGAGTGGGCTT / GCTAAGCCCACTCCTGATGTTAAGTGGGGCGAACAAGTGGTATGTAGCAAACTTGC [Nkx2.2 -1502 (-1503 in Fig 4 legend)],binds
11,ACGTGTGGGCGGGTCTTGGGAGTCAAGTGGATGAAGACAGTATTTG / CTGCAAATACTGTCTTCATCCACTTGACTCCCAAGACCCGCCCAC [Nkx2.2 -377],binds
12,TGTCCTCCTCATCCTCTCTGTGGCACTGAACCACTTGAGAGCTACACCTG / TGACAGGTGTAGCTCTCAAGTGGTTCAGTGCCACAGAGAGGATGAGGAGG [Iapp +479],binds
13,CTGAAGGCCTGCCGTAGTTGAGAAGTGAAGTGTCTCCAAGGTTCAAAGAACT / CAGAGTTCTTTGAACCTTGGAGACACTTCACTTCTCAACTACGGCAGGCCTT [Tm4sf4 -5],binds
14,CCGCCTAGGCCCGCGTCCCCGCCCACTTCACTGGGCTCAAGGCAGTGG / TGCCCACTGCCTTGAGCCCAGTGAAGTGGGCGGGGACGCGGGCCTAGG [Irs4 -111],binds
15,CGCTCCTCCCAGCTGCCAGCCAAGAAGACACTTGACTCCTTGATCGCTGGT / TGAACCAGCGATCAAGGAGTCAAGTGTCTTCTTGGCTGGCAGCTGGGAGGA [Ngn3 -506],binds
16,AGCCCAGAGAACCAAGCTAATAGCCACTTGATTATTTTACTCTAGTCAAATTGTG / TGCCACAATTTGACTAGAGTAAAATAATCAAGTGGCTATTAGCTTGGTTCTCTGG [Tm4sf4 +555],binds
17,TGTCCTCAGGCCGCTACATAAAGGCACTCAAGAGACTGGAGGCCCCAGGGAGTTTGGAGG / TGACCTCCAAACTCCCTGGGGCCTCCAGTCTCTTGAGTGCCTTTATGTAGCGGCCTGAGG [Iapp -1355],binds
18,ACGAAAAACTGCTAAAGTTCTCTCAAGTGAATTTTGACGTCAAATGAGCCTAG / AGACTAGGCTCATTTGACGTCAAAATTCACTTGAGAGAACTTTAGCAGTTTTT [Gcg -280],binds
19,TCGACGCGATTTTTCGAGTGGTTTTCAGTAGC / AGCTGCTACTGAAAACCACTCGAAAAATCGCG [Nkx2.2 GAGT],binds more weakly
20,AGTGTAAAAAATAAATTAATTTTAAAAAAAACACTTAAACGTGAACACAT / TGTATGTGTTCACGTTTAAGTGTTTTTTTTAAAATTAATTTATTTTTTAC [Iapp -1184],binds
21,AGTACACACATATCAATAACCCACTCATCCACATTGTATGGAATAAATTTGTAT / AGAATACAAATTTATTCCATACAATGTGGATGAGTGGGTTATTGATATGTGTGT [Gcg -432],binds
22,GTTAAGCTGGTATGGCTAGTTAAGTGGTTATAGCTGACATATAATGTCT / TGAAGACATTATATGTCAGCTATAACCACTTAACTAGCCATACCAGCTT [Iapp -1955],binds
23,CGCGTCGCTCTCGAGTCCACACACTTGAAAAGAGCCGTTTTAACAAATT / ATGCAATTTGTTAAAACGGCTCTTTTCAAGTGTGTGGACTCGAGAGCGAC [Nkx2.2 -188],binds
24,AGCCCTGGCTACTGGAACCTTGGCCACTTGAGCCCCGTCCACCTCCTGAGCCC / CCGGGGCTCAGGAGGTGGACGGGGCTCAAGTGGCCAAGGTTCCAGTAGCCAGG [Irs4 +1495],binds

# Same assay, conditions: positive control; pH and temperature not given; protein translated in vitro; protein details: Myc (stated in Fig 1C); label: 32P-dCTP Klenow fill-in
row,Sequence,binding result
1,TGTAACCAGGAGGCAGCCCCTCCAGCAAGCACTTCAGTGTGCTCAGTGGG / AACAGCCCCACTGAGCACACTGAAGTGCTTGCTGGAGGGGCTGCCTCCTGG [Mafa -7762],binds

# The exact form of at least one protein or probe is not confirmed. A weaker result is weaker than the reference pair of the same experiment. Where a protein sequence is shown, tags need not be part of it. For some assays here: Results from cells or extracts need not show a direct contact. For some assays here: At least one verdict was read from the data and is not stated in words by the source.
